Measurements from publication PMC7406630 (EJNMMI Research, 2020).

Experiments:
[1] = peptide made by a vendor; settings: whole synthesis, analytical RP-HPLC (Phenomenex Jupiter Proteo 90 Å C12)
[2] = general procedure: Fmoc solid-phase peptide synthesis; settings: whole synthesis, analytical RP-HPLC (Phenomenex Jupiter Proteo 90 Å C12)

Substance | final HPLC purity [1] | final HPLC purity [2]
DOTA-(4-amino)-D-Phe-c[Cys-Tyr-D-Trp-Lys-Val-Cys]-Thr-NH2 | 98% | 
DOTA-(4-amino-3-iodo)-D-Phe-c[Cys-(3-iodo)-Tyr-D-Trp-Lys-Val-Cys]-Thr-NH2 | 100% | 
DOTA-D-Phe-c[Cys-1-NaI-D-Trp-Lys-Thr-Cys]Thr(ol) |  | 96%
DOTA-D-Phe-c[Cys-Tyr-D-Trp-Lys-Thr-Cys]Thr |  | 100%
